Experimental data: PubChem BioAssay AID686938 (Drosophila RNAi Screening Center, 2013)
In all, the deposit lists about 23,000 reagents; shown is an unselected part of those with a known target gene and a result. Of all reagents, 75 (0.33%) were called active. 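Raw plate signals without normalisation; calls rest on plate z-scores that were not deposited; ratio present for only 364 wells.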 The numbers tell different reagents against one gene apart. Names joined by + are all predicted targets of the reagent. Not stated in the record: the dose of the treatment.

- Aim: 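Knock-downs reducing store-operated calcium influx in Drosophila cells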 (primary screen)
- Cells: Drosophila S2R+ cells
- Reagents: long dsRNA against Drosophila genes, about 0.25 µg dsRNA per well, roughly 10,000 cells
- Timing: 5 days of knock-down before the calcium assay
- Challenge: thapsigargin (SERCA pump blocker) to empty calcium stores; entry signal taken 4 min after adding it
- Read-out: 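Duplicate raw fluo-4 intensities per well from a plate reader, at rest and four minutes after thapsigargin emptied calcium stores; entry-to-rest ratio filled for only some wells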
- Reading the numbers: calcium entry signal: higher = stronger calcium signal after store depletion; resting calcium signal: higher = higher resting calcium signal
- Active means: 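Called when the plate z-score of the entry-to-rest ratio, mean of duplicates, falls below −3; wells with low overall dye signal (Fmax z below −2) or more than five off-targets excluded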
- Meaning of the calls: active = strongly reduced calcium entry; inactive = no strong reduction

gene | reagent | calcium entry signal, replicate 1 (fluorescence units) | calcium entry signal, replicate 2 (fluorescence units) | resting calcium signal, replicate 1 (fluorescence units) | resting calcium signal, replicate 2 (fluorescence units) | call
wde | 1 | 5.40e7 | 4.08e7 | 2.24e7 | 1.87e7 | inactive
CG12438 | 1 | 2.79e7 | 3.97e7 | 1.31e7 | 1.66e7 | inactive
RNaseX25 | 1 | 4.87e7 | 3.78e7 | 3.30e7 | 1.63e7 | inactive
snu | 1 | 5.09e7 | 4.92e7 | 2.20e7 | 2.24e7 | inactive
CG14135 | 1 | 2.27e7 | 3.85e7 | 1.18e7 | 1.74e7 | inactive
CG33341 | 1 | 4.19e7 | 3.99e7 | 2.52e7 | 1.84e7 | inactive
CG7091 | 1 | 2.69e7 | 3.52e7 | 1.23e7 | 1.55e7 | inactive
CG7091 | 2 | 2.01e7 | 3.30e7 | 9.95e6 | 5.39e7 | inactive
Grip84 | 1 | 2.98e7 | 2.62e7 | 1.95e7 | 1.26e7 | inactive
asRNA:CR43433 + Rbp6 | 1 | 3.58e7 | 4.64e7 | 1.85e7 | 2.44e7 | inactive
GNBP3 | 1 | 3.43e7 | 4.74e7 | 1.59e7 | 1.93e7 | inactive
CG7772 | 1 | 4.29e7 | 4.78e7 | 1.94e7 | 2.19e7 | inactive
Phs | 1 | 4.35e7 | 5.81e7 | 2.02e7 | 3.91e7 | inactive
CG15429 | 1 | 1.90e7 | 2.03e7 | 1.09e7 | 1.01e7 | inactive
CG15452 | 1 | 5.05e7 | 5.25e7 | 2.55e7 | 2.28e7 | inactive
CG15480 | 1 | 5.10e7 | 3.18e7 | 2.29e7 | 1.58e7 | inactive
CG43101 | 1 | 4.15e7 | 3.96e7 | 1.96e7 | 1.61e7 | inactive
Psf3 | 1 | 2.15e7 | 3.45e7 | 1.06e7 | 1.58e7 | inactive
Psf3 | 2 | 2.27e7 | 3.20e7 | 1.24e7 | 1.41e7 | inactive
CG14607 | 1 | 4.73e7 | 4.38e7 | 1.85e7 | 1.98e7 | inactive
His2Av | 1 | 4.01e7 | 5.08e7 | 2.10e7 | 2.58e7 | inactive
CG3062 | 1 | 2.94e7 | 3.97e7 | 1.54e7 | 1.68e7 | inactive
CG13151 | 1 | 3.10e7 | 3.59e7 | 1.69e7 | 1.71e7 | inactive
side-V | 1 | 4.18e7 | 5.49e7 | 2.07e7 | 2.72e7 | inactive
side-V | 2 | 5.44e7 | 3.22e7 | 2.63e7 | 1.60e7 | inactive
side-V | 3 | 2.84e7 | 4.65e7 | 1.47e7 | 2.18e7 | inactive
lcs | 1 | 3.62e7 | 3.92e7 | 1.77e7 | 1.63e7 | inactive
Odj | 1 | 4.08e7 | 3.78e7 | 2.09e7 | 1.80e7 | inactive
CG18371 | 1 | 3.70e7 | 3.42e7 | 1.83e7 | 1.57e7 | inactive
CG6163 | 1 | 2.65e7 | 4.82e7 | 1.31e7 | 1.99e7 | inactive
snoRNA:Me28S-C3227a + snoRNA:Me18S-A1061 + snoRNA:Me28S-C3227b + 7 more | 1 | 4.63e7 | 4.18e7 | 4.01e7 | 1.91e7 | inactive
CG42518 + MED9 | 1 | 3.25e7 | 3.10e7 | 1.56e7 | 1.59e7 | inactive
Hr39 | 1 | 3.76e7 | – | 1.96e7 | – | inactive
lncRNA:CR32027 | 1 | 3.64e7 | 3.29e7 | 1.83e7 | 1.88e7 | inactive
CG33203 | 1 | 4.13e7 | 6.76e7 | 2.09e7 | 3.04e7 | inactive
CG33203 | 2 | 3.82e7 | 6.13e7 | 2.02e7 | 2.56e7 | inactive
CG33203 | 3 | 4.02e7 | 3.55e7 | 2.06e7 | 1.77e7 | inactive
Sptr | 1 | 2.40e7 | 2.89e7 | 1.10e7 | 1.25e7 | inactive
Pp1-13C | 1 | 1.24e7 | 2.02e7 | 9.08e6 | 1.06e7 | inactive
Pp1-13C | 2 | 4.10e7 | 4.69e7 | 2.20e7 | 2.10e7 | inactive
BomS4 | 1 | 4.35e7 | 3.56e7 | 2.38e7 | 1.71e7 | inactive
DZIP1 | 1 | 3.57e7 | 3.74e7 | 1.85e7 | 1.60e7 | inactive
Rab19 | 1 | 2.05e7 | 3.72e7 | 1.05e7 | 1.67e7 | inactive
CG10710 | 1 | 3.01e7 | 4.68e7 | 1.51e7 | 2.14e7 | inactive
CG1910 | 1 | 2.43e7 | 3.21e7 | 1.15e7 | 1.50e7 | inactive
mlt (retired record) | 1 | 4.59e7 | 4.32e7 | 1.87e7 | 2.00e7 | inactive
unc-4 | 1 | 2.87e7 | 3.98e7 | 1.53e7 | 1.81e7 | inactive
unc-4 | 2 | 3.10e7 | 5.15e7 | 1.58e7 | 2.74e7 | inactive
CG43777 + CG43776 + CG43775 | 1 | 3.34e7 | 4.22e7 | 1.73e7 | 1.92e7 | inactive
MCU | 1 | 2.92e7 | 4.68e7 | 1.28e7 | 2.07e7 | inactive
rux | 1 | 3.28e7 | 3.30e7 | 1.64e7 | 1.50e7 | inactive
hbt + CG43779 | 1 | 2.98e7 | 1.94e7 | 1.48e7 | 9.52e6 | inactive
hbt + CG43779 | 2 | 5.21e7 | 3.67e7 | 2.62e7 | 1.54e7 | inactive
CG15422 | 1 | 3.49e7 | 4.09e7 | 1.85e7 | 1.87e7 | inactive
CG14657 | 1 | 2.91e7 | 4.67e7 | 1.40e7 | 1.99e7 | inactive
CG14657 | 2 | 2.58e7 | 3.66e7 | 1.14e7 | 1.60e7 | inactive
Rab3-GEF | 1 | 3.96e7 | 2.40e7 | 2.09e7 | 1.18e7 | inactive
Rab3-GEF | 2 | 4.03e7 | 3.08e7 | 2.03e7 | 1.43e7 | inactive
Rab3-GEF | 3 | 4.65e7 | 2.92e7 | 2.41e7 | 1.56e7 | inactive
